From PubChem BioAssay AID1420 (Emory University Molecular Libraries Screening Center, 2008)
In all, about 1,100 compounds went through this assay and about 65 (6%) were called active. How the calls were made is not given here. The entries are a selection whose mix differs from that of the whole data set. Potency and affinity values are given separately.

Chains of the proteins cited; added tags and fusions are not shown. Lines headed by an entry give the natural chain unless they say otherwise; changes in a name come on top.
UniProt P43367: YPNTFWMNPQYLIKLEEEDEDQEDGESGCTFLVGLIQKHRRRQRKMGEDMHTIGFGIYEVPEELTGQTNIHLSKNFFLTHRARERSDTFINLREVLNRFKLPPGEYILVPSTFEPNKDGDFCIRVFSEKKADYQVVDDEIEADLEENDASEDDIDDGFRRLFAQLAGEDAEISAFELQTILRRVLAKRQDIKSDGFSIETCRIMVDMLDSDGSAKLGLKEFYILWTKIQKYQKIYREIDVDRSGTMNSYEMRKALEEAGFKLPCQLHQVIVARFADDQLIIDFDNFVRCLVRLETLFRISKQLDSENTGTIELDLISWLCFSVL

Target: Calpain-2 catalytic subunit (Sus scrofa) (UniProt P43367)
Experiment: m-calpain protease blockers, concentration series – biochemical, fluorogenic peptide substrate, dose response (AID 1420)
Details: purified calpain II, 30 min; at 50 µM (top of the series)

Row | Structure (SMILES) | percent of control activity
1 | CC(C)Oc1cc(-n2c(=S)[nH]c3ccccc3c2=O)c(Cl)cc1Cl | inactive: 81.9%
2 | COc1ccc2[nH]c(C)c(CCN3CCC(=O)C(C)C3C)c2c1 (configuration not stated) | inactive: 93.5%
